Data: PMC11016940
Results are given in words; binding and its absence hold for the method and conditions named. Binding seen in cells or lysates may run through a third protein. Some results given as binding are weak or reduced against the parent protein; the word gives no strength.

The chains behind the UniProt entries cited, without tags or fusion partners.
UniProt Q9Y3D6: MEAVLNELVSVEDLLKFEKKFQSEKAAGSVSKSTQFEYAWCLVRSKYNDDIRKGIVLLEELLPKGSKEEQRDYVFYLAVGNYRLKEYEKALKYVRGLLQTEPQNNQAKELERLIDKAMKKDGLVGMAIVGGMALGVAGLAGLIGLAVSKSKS
UniProt O00429: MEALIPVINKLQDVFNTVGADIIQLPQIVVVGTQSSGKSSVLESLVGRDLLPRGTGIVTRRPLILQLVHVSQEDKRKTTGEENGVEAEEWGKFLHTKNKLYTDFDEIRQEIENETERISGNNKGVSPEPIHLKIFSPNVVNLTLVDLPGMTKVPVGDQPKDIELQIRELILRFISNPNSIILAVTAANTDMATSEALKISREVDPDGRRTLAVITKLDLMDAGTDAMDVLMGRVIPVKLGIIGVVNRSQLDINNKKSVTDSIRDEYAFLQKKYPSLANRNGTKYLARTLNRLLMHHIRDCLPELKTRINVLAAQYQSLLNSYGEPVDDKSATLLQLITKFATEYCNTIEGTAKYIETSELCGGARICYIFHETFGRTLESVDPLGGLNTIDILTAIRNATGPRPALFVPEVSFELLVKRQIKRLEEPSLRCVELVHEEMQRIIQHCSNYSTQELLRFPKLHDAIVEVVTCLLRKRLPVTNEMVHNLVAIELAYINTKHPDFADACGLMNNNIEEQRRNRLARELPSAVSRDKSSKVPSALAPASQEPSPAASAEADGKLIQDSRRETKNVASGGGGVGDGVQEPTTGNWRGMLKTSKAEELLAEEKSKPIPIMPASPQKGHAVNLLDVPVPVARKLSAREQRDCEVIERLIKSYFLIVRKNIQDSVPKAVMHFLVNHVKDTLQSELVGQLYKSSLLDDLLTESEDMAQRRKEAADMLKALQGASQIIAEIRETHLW
UniProt Q8K1M6: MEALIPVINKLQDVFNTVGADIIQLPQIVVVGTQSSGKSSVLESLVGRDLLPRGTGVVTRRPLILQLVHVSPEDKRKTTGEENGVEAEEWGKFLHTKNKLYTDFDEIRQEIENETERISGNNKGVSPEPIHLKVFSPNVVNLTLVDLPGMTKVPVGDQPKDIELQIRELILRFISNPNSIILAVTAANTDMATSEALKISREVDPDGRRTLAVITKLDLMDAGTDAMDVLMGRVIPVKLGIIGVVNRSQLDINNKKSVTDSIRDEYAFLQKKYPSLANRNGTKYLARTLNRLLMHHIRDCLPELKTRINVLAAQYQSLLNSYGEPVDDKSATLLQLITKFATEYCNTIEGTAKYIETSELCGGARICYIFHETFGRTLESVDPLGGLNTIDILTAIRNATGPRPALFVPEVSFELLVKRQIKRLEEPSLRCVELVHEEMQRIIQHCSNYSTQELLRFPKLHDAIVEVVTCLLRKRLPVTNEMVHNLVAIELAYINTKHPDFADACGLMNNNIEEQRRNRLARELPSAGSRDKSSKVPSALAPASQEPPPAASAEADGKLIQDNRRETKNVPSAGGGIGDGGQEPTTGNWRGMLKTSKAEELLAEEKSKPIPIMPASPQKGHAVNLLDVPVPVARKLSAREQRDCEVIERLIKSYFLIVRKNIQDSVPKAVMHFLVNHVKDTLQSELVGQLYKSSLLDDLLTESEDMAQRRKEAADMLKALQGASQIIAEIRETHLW

What was measured:
[1] = target: Fis1, human, in SGC7901 xenograft tumours (human (endogenous in SGC7901)) (UniProt Q9Y3D6); experiment: co-IP; endogenous proteins in mitochondria of SGC7901 xenograft tumours, mice without PX-478; kit (Thermo Scientific), 4 µg antibody to Fis1 or Drp1
[2] = target: Fis1, human, in SGC7901 xenograft tumours (human (endogenous in SGC7901)) (UniProt Q9Y3D6); experiment: condition: only xenograft mice treated with PX-478 (HIF-1α inhibitor); co-IP; endogenous proteins in mitochondria of SGC7901 xenograft tumours, mice treated with PX-478 (HIF-1α inhibitor); kit (Thermo Scientific), 4 µg antibody to Fis1 or Drp1
[3] = target: T1, Fis1, mouse (mouse (endogenous in mouse gastric mucosa)) (UniProt Q9CQ92); experiment: co-IP; endogenous proteins of gastric tissue / primary gastric epithelial cells of SO and PHT mice with or without PX-478; kit (Thermo Scientific), 4 µg antibody to Fis1 or Drp1; interaction found in mitochondria
T1 sequence: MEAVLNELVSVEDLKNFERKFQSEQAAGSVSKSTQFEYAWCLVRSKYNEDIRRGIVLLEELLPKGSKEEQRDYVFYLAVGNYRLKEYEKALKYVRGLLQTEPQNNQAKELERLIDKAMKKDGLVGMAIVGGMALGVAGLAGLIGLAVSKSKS

| binding [1] | binding [2] | binding [3] | Substance |
| --- | --- | --- | --- |
| binds | no binding |  | Dynamin‐related protein 1 (Drp1), human, in SGC7901 xenograft tumours (from UniProt O00429 1-736) |
|  |  | binds | Dynamin‐related protein 1 (Drp1), mouse (from UniProt Q8K1M6 1-736) |
